# Source: the supplement of paper PMC12819154, “High-throughput peptide-centric local stability assay extends protein–ligand identification to membrane proteins, tissues and bacteria” (Nature Structural & Molecular Biology, 2025)
# By UniProt entry, the sequences of proteins in these tests, tags left out. Where a name states a change or a piece, a line headed by the entry shows the natural chain unless it says otherwise.
# UniProt Q5TCZ1: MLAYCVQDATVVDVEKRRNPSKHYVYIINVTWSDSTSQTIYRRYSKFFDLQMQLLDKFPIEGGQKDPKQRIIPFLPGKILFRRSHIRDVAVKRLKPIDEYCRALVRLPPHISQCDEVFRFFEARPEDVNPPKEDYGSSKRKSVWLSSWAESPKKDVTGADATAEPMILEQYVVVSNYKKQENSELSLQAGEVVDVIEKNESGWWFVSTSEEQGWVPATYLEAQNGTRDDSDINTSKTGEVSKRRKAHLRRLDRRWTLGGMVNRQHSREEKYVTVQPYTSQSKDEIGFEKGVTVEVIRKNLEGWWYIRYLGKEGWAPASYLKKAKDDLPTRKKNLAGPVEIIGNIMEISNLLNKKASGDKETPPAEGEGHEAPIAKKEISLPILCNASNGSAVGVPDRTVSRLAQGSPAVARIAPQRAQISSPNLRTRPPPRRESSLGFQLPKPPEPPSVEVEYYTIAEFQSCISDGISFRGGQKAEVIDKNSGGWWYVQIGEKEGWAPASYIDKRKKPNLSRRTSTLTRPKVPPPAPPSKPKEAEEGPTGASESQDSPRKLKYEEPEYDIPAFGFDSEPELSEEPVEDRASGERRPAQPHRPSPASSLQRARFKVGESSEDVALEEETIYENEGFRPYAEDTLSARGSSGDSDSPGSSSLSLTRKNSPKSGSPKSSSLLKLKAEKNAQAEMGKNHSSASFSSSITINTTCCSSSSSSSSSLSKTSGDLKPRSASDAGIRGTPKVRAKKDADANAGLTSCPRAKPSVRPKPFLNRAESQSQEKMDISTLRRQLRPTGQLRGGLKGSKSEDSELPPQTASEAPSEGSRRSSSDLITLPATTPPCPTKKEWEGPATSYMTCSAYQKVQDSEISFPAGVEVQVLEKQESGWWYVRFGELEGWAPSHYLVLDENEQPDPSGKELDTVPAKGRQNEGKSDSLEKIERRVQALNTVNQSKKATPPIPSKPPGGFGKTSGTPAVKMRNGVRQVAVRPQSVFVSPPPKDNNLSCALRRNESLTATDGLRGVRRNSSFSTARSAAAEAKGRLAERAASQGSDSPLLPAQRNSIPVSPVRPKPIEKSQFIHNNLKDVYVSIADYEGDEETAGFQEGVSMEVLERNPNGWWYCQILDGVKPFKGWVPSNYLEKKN
# UniProt Q5T0F9: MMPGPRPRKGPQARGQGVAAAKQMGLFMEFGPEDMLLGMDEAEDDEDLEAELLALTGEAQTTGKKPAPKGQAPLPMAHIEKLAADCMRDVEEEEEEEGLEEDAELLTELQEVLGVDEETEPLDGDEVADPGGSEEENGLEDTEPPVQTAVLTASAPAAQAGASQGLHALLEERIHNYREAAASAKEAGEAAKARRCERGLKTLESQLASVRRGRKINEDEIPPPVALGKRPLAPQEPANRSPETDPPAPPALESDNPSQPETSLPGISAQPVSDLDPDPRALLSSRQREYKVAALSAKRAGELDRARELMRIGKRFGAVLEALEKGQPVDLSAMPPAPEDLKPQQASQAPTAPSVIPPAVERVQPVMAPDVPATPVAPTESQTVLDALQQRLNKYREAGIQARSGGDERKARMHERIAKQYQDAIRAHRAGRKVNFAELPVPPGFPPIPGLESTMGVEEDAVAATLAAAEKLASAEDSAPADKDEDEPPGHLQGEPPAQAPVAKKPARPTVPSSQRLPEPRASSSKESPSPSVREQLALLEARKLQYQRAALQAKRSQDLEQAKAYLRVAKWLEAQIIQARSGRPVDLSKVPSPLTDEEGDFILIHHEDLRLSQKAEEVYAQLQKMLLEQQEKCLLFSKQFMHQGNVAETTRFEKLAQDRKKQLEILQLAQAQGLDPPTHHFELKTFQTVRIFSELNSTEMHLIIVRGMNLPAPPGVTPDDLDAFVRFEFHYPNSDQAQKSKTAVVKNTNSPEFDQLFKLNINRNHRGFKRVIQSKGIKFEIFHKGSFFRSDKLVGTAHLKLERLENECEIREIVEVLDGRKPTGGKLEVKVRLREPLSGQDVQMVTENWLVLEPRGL
# UniProt Q4G0M1: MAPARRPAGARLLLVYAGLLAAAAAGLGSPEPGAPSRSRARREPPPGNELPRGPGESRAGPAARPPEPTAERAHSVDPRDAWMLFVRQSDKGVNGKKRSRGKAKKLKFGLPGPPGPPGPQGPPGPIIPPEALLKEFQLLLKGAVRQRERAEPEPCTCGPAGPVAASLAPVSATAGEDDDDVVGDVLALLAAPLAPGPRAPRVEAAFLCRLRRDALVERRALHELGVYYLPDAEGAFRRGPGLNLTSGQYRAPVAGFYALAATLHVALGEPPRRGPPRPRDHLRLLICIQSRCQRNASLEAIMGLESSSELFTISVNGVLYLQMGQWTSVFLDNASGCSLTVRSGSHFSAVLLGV
# UniProt Q5TDH0: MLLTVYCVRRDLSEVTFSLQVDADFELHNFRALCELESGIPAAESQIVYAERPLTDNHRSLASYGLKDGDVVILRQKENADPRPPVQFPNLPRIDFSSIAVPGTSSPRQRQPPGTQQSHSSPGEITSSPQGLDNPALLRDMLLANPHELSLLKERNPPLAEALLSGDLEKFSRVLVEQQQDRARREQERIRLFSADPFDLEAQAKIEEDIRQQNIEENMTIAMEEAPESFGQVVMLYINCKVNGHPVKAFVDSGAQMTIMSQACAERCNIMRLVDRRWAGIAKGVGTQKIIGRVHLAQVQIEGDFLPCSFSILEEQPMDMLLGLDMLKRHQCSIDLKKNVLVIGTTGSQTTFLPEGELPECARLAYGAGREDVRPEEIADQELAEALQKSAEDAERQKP
# UniProt Q5VSL9: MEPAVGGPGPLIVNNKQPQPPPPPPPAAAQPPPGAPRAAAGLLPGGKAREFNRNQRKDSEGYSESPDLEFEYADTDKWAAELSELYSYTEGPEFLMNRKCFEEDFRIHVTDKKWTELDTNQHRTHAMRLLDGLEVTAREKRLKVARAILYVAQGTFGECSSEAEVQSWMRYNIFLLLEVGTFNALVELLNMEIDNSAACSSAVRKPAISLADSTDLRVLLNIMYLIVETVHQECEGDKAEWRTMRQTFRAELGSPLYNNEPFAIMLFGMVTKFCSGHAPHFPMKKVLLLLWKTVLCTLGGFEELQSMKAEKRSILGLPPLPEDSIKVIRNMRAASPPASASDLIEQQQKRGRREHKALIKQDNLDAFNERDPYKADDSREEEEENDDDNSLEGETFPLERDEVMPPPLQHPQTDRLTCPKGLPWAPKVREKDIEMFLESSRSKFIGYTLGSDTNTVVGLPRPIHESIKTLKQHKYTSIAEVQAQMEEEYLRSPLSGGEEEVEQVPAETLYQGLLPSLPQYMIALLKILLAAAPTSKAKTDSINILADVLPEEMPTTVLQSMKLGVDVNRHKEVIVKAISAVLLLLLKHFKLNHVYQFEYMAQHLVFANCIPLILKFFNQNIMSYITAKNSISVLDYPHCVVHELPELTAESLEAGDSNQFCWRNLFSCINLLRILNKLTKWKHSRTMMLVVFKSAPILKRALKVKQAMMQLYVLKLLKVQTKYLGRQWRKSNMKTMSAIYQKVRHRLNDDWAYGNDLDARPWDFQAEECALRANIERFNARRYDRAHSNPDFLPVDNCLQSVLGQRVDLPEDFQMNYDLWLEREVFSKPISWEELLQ
# UniProt Q5BKU9: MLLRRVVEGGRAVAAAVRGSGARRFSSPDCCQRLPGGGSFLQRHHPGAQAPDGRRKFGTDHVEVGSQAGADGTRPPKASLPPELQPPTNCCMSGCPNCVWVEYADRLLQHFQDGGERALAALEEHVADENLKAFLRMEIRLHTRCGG
# UniProt Q5VTU8: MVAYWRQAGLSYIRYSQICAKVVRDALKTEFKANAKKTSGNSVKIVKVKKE
# UniProt Q53G59: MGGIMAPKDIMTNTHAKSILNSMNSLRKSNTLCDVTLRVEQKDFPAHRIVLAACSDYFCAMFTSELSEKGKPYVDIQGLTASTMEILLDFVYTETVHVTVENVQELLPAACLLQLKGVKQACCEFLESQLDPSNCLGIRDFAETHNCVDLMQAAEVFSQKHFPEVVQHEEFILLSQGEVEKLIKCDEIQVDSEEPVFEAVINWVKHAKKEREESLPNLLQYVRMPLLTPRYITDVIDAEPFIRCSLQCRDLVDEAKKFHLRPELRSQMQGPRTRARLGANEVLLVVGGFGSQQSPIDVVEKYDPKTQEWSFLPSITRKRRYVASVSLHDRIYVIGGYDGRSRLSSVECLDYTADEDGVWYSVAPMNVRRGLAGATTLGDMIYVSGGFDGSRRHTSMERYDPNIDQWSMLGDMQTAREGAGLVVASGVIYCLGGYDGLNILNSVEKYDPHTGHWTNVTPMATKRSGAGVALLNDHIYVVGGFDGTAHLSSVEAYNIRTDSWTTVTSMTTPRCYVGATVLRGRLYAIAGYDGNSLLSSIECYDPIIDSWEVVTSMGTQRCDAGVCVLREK
# UniProt Q5SQN1: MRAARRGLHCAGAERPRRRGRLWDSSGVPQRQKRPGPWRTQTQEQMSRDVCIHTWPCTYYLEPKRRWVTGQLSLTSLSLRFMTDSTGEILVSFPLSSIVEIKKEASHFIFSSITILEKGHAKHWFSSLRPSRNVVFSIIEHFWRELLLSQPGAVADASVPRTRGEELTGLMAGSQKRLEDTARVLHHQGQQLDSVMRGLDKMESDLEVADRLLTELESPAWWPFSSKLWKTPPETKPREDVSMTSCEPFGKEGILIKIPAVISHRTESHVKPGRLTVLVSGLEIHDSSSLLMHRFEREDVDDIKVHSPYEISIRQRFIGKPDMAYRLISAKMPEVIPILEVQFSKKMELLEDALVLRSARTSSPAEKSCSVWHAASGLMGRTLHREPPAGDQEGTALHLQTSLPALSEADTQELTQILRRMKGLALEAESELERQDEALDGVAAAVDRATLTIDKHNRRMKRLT
# UniProt Q5VTR2, whole entry: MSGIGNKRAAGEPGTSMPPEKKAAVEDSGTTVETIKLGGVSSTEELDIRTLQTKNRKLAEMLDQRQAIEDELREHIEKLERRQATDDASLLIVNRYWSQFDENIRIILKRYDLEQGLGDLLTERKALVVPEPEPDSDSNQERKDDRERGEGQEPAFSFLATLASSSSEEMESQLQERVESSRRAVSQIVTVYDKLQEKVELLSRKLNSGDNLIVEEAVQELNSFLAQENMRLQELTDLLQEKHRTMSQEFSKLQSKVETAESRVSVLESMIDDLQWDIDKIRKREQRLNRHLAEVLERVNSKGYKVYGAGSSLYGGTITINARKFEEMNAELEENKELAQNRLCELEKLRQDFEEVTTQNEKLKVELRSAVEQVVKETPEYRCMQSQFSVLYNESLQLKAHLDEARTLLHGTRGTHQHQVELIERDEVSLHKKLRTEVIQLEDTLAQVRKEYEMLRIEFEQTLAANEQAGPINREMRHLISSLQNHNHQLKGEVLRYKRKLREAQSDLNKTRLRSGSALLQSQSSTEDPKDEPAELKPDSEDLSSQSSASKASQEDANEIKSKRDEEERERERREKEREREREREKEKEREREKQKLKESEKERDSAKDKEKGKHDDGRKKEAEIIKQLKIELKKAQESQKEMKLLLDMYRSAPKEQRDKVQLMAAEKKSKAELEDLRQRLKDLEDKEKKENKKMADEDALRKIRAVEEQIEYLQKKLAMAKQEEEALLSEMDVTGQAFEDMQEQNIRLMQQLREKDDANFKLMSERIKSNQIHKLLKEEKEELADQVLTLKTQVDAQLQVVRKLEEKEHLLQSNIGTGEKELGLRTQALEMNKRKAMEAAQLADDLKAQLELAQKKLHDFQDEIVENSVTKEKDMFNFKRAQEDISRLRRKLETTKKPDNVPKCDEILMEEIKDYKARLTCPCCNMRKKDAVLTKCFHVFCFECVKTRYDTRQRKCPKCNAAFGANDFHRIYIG
# UniProt Q5T2D3, whole entry: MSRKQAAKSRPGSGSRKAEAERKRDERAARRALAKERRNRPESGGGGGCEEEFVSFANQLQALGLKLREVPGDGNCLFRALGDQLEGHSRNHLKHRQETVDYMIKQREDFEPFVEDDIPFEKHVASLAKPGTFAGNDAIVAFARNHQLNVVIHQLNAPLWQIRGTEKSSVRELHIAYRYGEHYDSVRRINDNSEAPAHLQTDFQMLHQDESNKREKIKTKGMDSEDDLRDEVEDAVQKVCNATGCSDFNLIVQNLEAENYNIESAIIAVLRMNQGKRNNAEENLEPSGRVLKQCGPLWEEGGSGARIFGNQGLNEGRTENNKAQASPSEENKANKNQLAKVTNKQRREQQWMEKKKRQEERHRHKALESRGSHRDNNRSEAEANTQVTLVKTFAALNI
# UniProt Q53TN4: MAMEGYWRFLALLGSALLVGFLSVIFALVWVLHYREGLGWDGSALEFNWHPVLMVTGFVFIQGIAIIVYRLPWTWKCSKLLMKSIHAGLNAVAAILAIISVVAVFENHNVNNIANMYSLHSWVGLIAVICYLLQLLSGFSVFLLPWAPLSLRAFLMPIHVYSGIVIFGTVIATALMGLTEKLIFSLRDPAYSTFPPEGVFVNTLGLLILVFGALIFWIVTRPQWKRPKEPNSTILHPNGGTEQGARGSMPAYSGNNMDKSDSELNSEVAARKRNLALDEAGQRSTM
# UniProt Q53S33: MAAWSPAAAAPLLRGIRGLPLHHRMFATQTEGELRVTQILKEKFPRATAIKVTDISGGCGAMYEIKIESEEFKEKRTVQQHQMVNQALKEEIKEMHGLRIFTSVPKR
# This is one part of the list. Most entries show no effect beyond the scatter of the controls.
# Compound: CN[C@@H]1C[C@H]2O[C@@](C)([C@@H]1OC)n1c3ccccc3c3c4c(c5c6ccccc6n2c5c31)C(=O)NC4 [staurosporine]
# Assay: log2 fold change of tryptic peptide abundance, ligand vs vehicle (limited proteolysis) (log2 ratio); higher = more trypsin-susceptible (destabilized)
# Conditions: ligand concentration: 20 uM; sample: K562 cleared lysate; digestion: 4 min, 22 C (HT-PELSA RT4min, Orbitrap Astral)
row,Target,log2 fold change
1,"PPRC1 (peptide sequence: SKFDSLDFDTLLK, peptide start residue: 1644) (UniProt Q5VV67)",-0.568
2,"SETMAR (peptide sequence: TTRPCGMAEFK, peptide start residue: 8) (UniProt Q53H47)",-0.556
3,"SH3PXD2A (peptide sequence: RPAQPHRPSPASSLQR, peptide start residue: 585) (UniProt Q5TCZ1)",-0.266
4,"CC2D1B (peptide sequence: SQDLEQAK, peptide start residue: 557) (UniProt Q5T0F9)",-0.165
5,"UniProt Q5H9R7 (peptide sequence: ETLSLTVDAK, peptide start residue: 800)",-0.195
6,"ZC3H12A (peptide sequence: EQPRPDVPITDQHILR, peptide start residue: 185) (UniProt Q5D1E8)",-0.758
7,"UniProt Q4G0M1 (peptide sequence: EFQLLLK, peptide start residue: 135)",0.508
8,"DDI2 (peptide sequence: SLASYGLKDGDVVILR, peptide start residue: 60) (UniProt Q5TDH0)",0.334
9,"UniProt Q5VSL9 (peptide sequence: TMMLVVFK, peptide start residue: 682)",-0.108
10,"SFT2D3 (peptide sequence: AEEPGDRPAEEWLGR, peptide start residue: 32) (UniProt Q587I9)",0.36
11,"OXLD1 (peptide sequence: LLQHFQDGGER, peptide start residue: 107) (UniProt Q5BKU9)",0.54
12,"PITRM1 (peptide sequence: IFSQHLQNR, peptide start residue: 216) (UniProt Q5JRX3)",-0.818
13,"ACBD5 (peptide sequence: STEEVKPIDENLGQTGK, peptide start residue: 262) (UniProt Q5T8D3)",0.675
14,"DALRD3 (peptide sequence: TLSPGILGRLCLK, peptide start residue: 207) (UniProt Q5D0E6)",0.426
15,"PDE4DIP (peptide sequence: RQQLLLMLEGLVDER, peptide start residue: 856) (UniProt Q5VU43)",1.14
16,"UniProt Q5VTU8 (peptide sequence: QAGLSYIR, peptide start residue: 7)",0.099
17,"UniProt Q53EQ6 (peptide sequence: VLSDLTHLAALAYK, peptide start residue: 509)",0.403
18,"UniProt Q4KMZ1 (peptide sequence: AGCTGEEQWR, peptide start residue: 447)",-0.182
19,"KLHL12 (peptide sequence: EREESLPNLLQYVR, peptide start residue: 210) (UniProt Q53G59)",-0.0201

row,Target,log2 fold change
1,"SNAP47 (peptide sequence: SCSVWHAASGLMGR, peptide start residue: 368) (UniProt Q5SQN1)",0.389
2,"CRTC2 (peptide sequence: VPLSPLSLLAGPADARR, peptide start residue: 430) (UniProt Q53ET0)",-0.457
3,"RNF20 (peptide sequence: AVEEQIEYLQKK, peptide start residue: 706) (UniProt Q5VTR2)",-1.12
4,"RARS2 (peptide sequence: KHFQQVFQMLK, peptide start residue: 352) (UniProt Q5T160)",0.199
5,"UniProt Q5T2D3 (peptide sequence: AQASPSEENK, peptide start residue: 323)",-0.521
6,"UniProt Q5TEJ8 (peptide sequence: IPSTLEVDVEDVTASSR, peptide start residue: 223)",-0.151
7,"UniProt Q5VY09 (peptide sequence: NLLVSLVLR, peptide start residue: 33)",0.094
8,"ARHGAP15 (peptide sequence: SMILTDVGK, peptide start residue: 43) (UniProt Q53QZ3)",0.33
9,"LYPLAL1 (peptide sequence: CIVSPAGR, peptide start residue: 12) (UniProt Q5VWZ2)",-0.172
10,"CYBRD1 (peptide sequence: NLALDEAGQR, peptide start residue: 274) (UniProt Q53TN4)",0.301
11,"LIN9 (peptide sequence: RRCEEEAQEIVR, peptide start residue: 433) (UniProt Q5TKA1)",-1.5
12,"CDCA8 (peptide sequence: LAQICSSIR, peptide start residue: 269) (UniProt Q53HL2)",-0.175
13,"FLYWCH1 (peptide sequence: LLVLESFLYKQEK, peptide start residue: 125) (UniProt Q4VC44)",0.268
14,"BOLA3 (peptide sequence: IESEEFKEKR, peptide start residue: 67) (UniProt Q53S33)",0.467
15,"UniProt Q5VYK3 (peptide sequence: FQEFSNIVIPLIKK, peptide start residue: 1651)",-0.116
16,"TOR2A (peptide sequence: DREEILLQELEPVISR, peptide start residue: 218) (UniProt Q5JU69)",0.309
17,"UniProt Q4ADV7 (peptide sequence: TLSMPSGPSGK, peptide start residue: 1035)",-0.177
18,"UniProt Q5JQF8 (peptide sequence: KSGVGNVFIK, peptide start residue: 95)",-0.00219

# Two entries from above, bar-delimited:
row | Target | log2 fold change
9 | LYPLAL1 (peptide sequence: CIVSPAGR, peptide start residue: 12) (UniProt Q5VWZ2) | -0.172
10 | CYBRD1 (peptide sequence: NLALDEAGQR, peptide start residue: 274) (UniProt Q53TN4) | 0.301
